Laboratory results as given in the supplement of paper PMC8326762, “A Small Molecule Inhibitor of Pex3–Pex19 Interaction Disrupts Glycosome Biogenesis and Causes Lethality in Trypanosoma brucei” (Frontiers in Cell and Developmental Biology, 2021).
Where a name gives a salt, the structure may show the parent alone. This is one part of the list. Single values of this set are uncertain.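 Optical density at 600 nm measured yeast growth. Because the two-hybrid strains grew without histidine, growth required Pex3–Pex19 binding. Trypanosome selectivity meant a compound inhibited the trypanosome-pair strain's growth by more than 65% but the human-pair strain's by less than 65%.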

Assays:
[1] = test system: Saccharomyces cerevisiae HF7c pdr5Δ; experiment: general growth inhibition of yeast HF7c pdr5Δ in -Leu -Trp medium, relative to DMSO; higher = stronger general growth inhibition; conditions: 100 µM; 24 h
[2] = test system: human PEX3-PEX19 interaction (yeast two-hybrid); experiment: growth inhibition of yeast two-hybrid strain reporting HsPex3-HsPex19 interaction, relative to DMSO; higher = stronger inhibition of human Pex3-Pex19 interaction / growth; conditions: 100 µM; 24 h; 3-aminotriazole 10 mM
[3] = test system: T. brucei Pex3-Pex19 interaction (yeast two-hybrid); experiment: growth inhibition of yeast two-hybrid strain reporting TbPex3-TbPex19 interaction, relative to DMSO; higher = stronger inhibition of T. brucei Pex3-Pex19 interaction / growth; conditions: 100 µM; 24 h

Structure (SMILES) | general growth inhibition [1] [%] | growth inhibition [2] [%] | growth inhibition [3] [%]
O=Nc1ccc2oc(=O)ccc2c1 [6-Nitroso-1,2-benzopyrone] | 88.4 | 84.3 | 83.5
CCCCCCCCCCCCCCSCC(=O)O [Tetradecylthioacetic acid] | 48.2 | 47.9 | 58.8
NS(=O)(=O)c1cc2c(cc1Cl)NC(C1CC3C=CC1C3)NS2(=O)=O (stereo not drawn) [Cyclothiazide] | 6.54 | 3.42 | 31.2
COc1ccccc1CNCCCCCCNCCCCCCCCNCCCCCCNCc1ccccc1OC [Methoctramine tetrahydrochloride] | 35.5 | 30.7 | 55.5
CN(C)CCOC(C)(c1ccccc1)c1ccccn1 (stereo not drawn) [Doxylamine succinate] | 39.5 | 42 | 67.6
COc1cc(/C=C/C(=O)N2CCC=CC2=O)cc(OC)c1OC [Piperlongumine] | 53.5 | 41.6 | 48.3
CC(=O)Oc1ccccc1C(=O)O [Acetylsalicylic acid] | 39.6 | 48.1 | 65
CN(C)C(N)=NCCC[C@H](N)C(=O)O [N^G,N^G-Dimethylarginine hydrochloride] | 31.2 | 45.3 | 57.9
C=CCN1CCc2cc(O)c(O)cc2C(c2ccccc2)C1 (racemic) | 54.8 | 43.8 | 66.3
C[C@]12CC[C@@H]3c4ccc(O)cc4CC[C@H]3[C@@H]1CCC2=O [Estrone] | 34.1 | 32.1 | 45.4
COC(=O)[C@@H](N)Cc1ccc(O)c(O)c1 [L-3,4-Dihydroxyphenylalanine methyl ester hydrochloride] | 48.9 | 48.4 | 61.6

Random excerpt: 2 compounds from above, in no set order.
Structure (SMILES) | general growth inhibition [1] [%] | growth inhibition [2] [%] | growth inhibition [3] [%]
C[C@]12CC[C@@H]3c4ccc(O)cc4CC[C@H]3[C@@H]1CCC2=O [Estrone] | 34.1 | 32.1 | 45.4
CN(C)CCOC(C)(c1ccccc1)c1ccccn1 (stereo not drawn) [Doxylamine succinate] | 39.5 | 42 | 67.6
